A short description of this assay: qHTS Assay for Lipid Storage Modulators in Drosophila S3 Cells.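 For cell number change: cells counted by Cell Tracker Red CMTPX staining in the red channel.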 The conditions noted are these: BODIPY lipid droplet fluorescence, 18-24 h; for cell number change: measured here: cell count max response, cells fed with added oleic acid. The essentials:
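Drosophila S3 cells loaded with oleic acid (400 uM, as added) and compounds at several concentrations; lipid droplets imaged by 488-nm laser-scanning cytometry, 500–530 nm intensity and object ratio to cell channel. Percent activity normalized to 20 uM Triacsin C.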
(Quantitative high-throughput screening tests each substance at several concentrations.)

[1] abbreviates: measured here: cell number channel AC50, cells fed with added oleic acid.
The mark [2] stands for this setting: measured here: lipid fluorescence (Fed channel) AC50, cells fed with added oleic acid.

This is one part of the list. Further columns of the screen follow, without active or inactive calls. The list favours compounds with an active or inconclusive main result. The note in brackets gives the kind of curve behind each potency; many fits are weak.

The term AC50 denotes the concentration at which the activity in the assay is half-maximal. Take `O=S(=O)(Nc1cc(Sc2cccc3cccnc23)c(O)c2ccccc12)c1ccccc1`: the cell number change is -59.6%. Moreover, the AC50 under setting [1] was 11.6 µM [falling, partial curve]. The AC50 under setting [2] is 2.31 µM [falling, full curve]. For `CC1CCCN(C(=O)c2ccc([N+](=O)[O-])o2)C1` (configuration not stated), the cell number change stood at 13.5%. The AC50 under setting [2] is 0.794 µM [falling, full curve, poor fit].

In the case of `CCn1c(SCC(=O)N/N=C/C(C)=C/c2ccco2)nnc1-c1ccccc1`, the cell number change came out at 6%. Also, under setting [2], the AC50 was 0.103 µM [rising, full curve, poor fit]. In the case of `CC(C)(CNc1ccc(C(F)(F)F)cc1[N+](=O)[O-])N1CCOCC1`, the cell number change is -3.18%. Under setting [2], the AC50 was 23.1 µM [falling, single point]. As for `CCN(c1ccccc1)S(=O)(=O)c1ccc(C(=O)N2CC(C)CC(C)C2)cc1` (configuration not stated), the cell number change came to 26.3%. Moreover, under setting [2], the concentration at half-maximal activity (AC50) is 1.03 µM [rising, partial curve, poor fit]. `C=CCn1c(SCC(=O)N(CC)C2CCS(=O)(=O)C2)nnc1-c1ccccc1` (configuration not stated): the cell number change is 10.9%. On to `Fc1ccccc1NC(=S)NCCc1ccc(Cl)cc1`, for which the cell number change worked out at 2.31%. Further, the AC50 under setting [2] was 0.206 µM [rising, partial curve, poor fit]. With `COc1ccc2[nH]c(=O)c(CN(Cc3nnnn3CCc3ccccc3)CC3CCCO3)cc2c1` (configuration not stated), the cell number change worked out at 106%. Moreover, under setting [1], the AC50 is 1.3 µM [rising, full curve]. Under setting [2], the half-maximal activity concentration (AC50) was 5.17 µM [rising, single point]. Turning to `COc1ccc(OC)c(C2NC(=O)c3sc(=S)n(-c4ccccc4)c3N2)c1` (configuration not stated), the cell number change was -36.5%.

In the case of `Cc1c(N2C(=O)CS/C2=N\N=C\c2ccc(Br)cc2)c(=O)n(-c2ccccc2)n1C`, the cell number change came out at 12.1%. The AC50 under setting [2] is 3.26 µM [falling, single point]. Regarding `Cc1[nH]c2ccccc2c1C(=O)COC(=O)C1CC(O)CN1S(=O)(=O)c1ccc(Cl)cc1` (configuration not stated), the cell number change is 15.4%. For the same compound, the half-maximal activity concentration (AC50) under setting [2] was 0.517 µM [rising, full curve]. `CCOc1ccc(OCc2cccc(C(=O)N/N=C/c3cccnc3)c2)cc1`: the cell number change is -15.1%. Moreover, the AC50 under setting [2] was 0.0461 µM [rising, partial curve, poor fit]. On to `CCC(C)c1ccc(OCCn2cc(/C=N/NC(=O)CSc3nnc(C)s3)c3ccccc32)cc1` (configuration not stated), for which the cell number change is -31.8%. The AC50 under setting [1] was 29.1 µM [falling, single point]. For the same compound, under setting [2], the AC50 was 29.1 µM [falling, single point]. Turning to `CCOc1ccc(C(=O)CCN2CCCCC2)cc1`, the cell number change worked out at 1.22%. The AC50 under setting [2] is 29.1 µM [falling, single point].

`Cc1ccc(CSc2nnc(Nc3ccc(C)cc3)s2)cc1`: the cell number change is 1.95%. In the case of `Cc1cc[n+](CC(=O)c2cccs2)cc1`, the cell number change was -47.2%. In addition, the AC50 under setting [1] was 18.4 µM [falling, partial curve, poor fit]. For the same compound, the concentration at half-maximal activity (AC50) under setting [2] was 0.184 µM [falling, full curve, poor fit]. `N#C/C(=C\c1ccncc1)c1nc2ccccc2c(=O)[nH]1`: the AC50 under setting [1] is 1.84 µM [rising, partial curve].

As for `COc1ccccc1-c1c(C)oc2cc(OC(=O)c3ccco3)ccc2c1=O`, the cell number change is -29.2%. Same read-out and setting: for `CC1CN(S(=O)(=O)c2ccc(NC(=O)CCN3C(=O)c4ccccc4C3=O)cc2)CC(C)O1` (configuration not stated) the value was 23.3%. Same read-out and setting: for `CCn1cc(C(=O)O)c(=O)c2cc(F)c(N3CCN(C(=S)NC(=O)c4ccccc4Br)CC3)cc21` the value was 18.5%. For the compound `Nc1nnc(SCn2nnc3ccccc3c2=O)s1`, the cell number change is -1.56%. Also, the AC50 under setting [2] was 1.64 µM [rising, partial curve]. For the compound `COc1ccc(NC(=O)c2oc3ccccc3c2CSC)cn1`, the AC50 under setting [2] was 20.6 µM [falling, partial curve]. For `O=C(COC(=O)c1ccc(O)cc1O)NCCN1C(=O)CSC1=O`, the cell number change is 14.4%. Moreover, under setting [2], the half-maximal activity concentration (AC50) was 25.9 µM [rising, single point]. Turning to `NC(=O)c1cc2cc([N+](=O)[O-])ccc2oc1=O`, under setting [2], the concentration at half-maximal activity (AC50) is 7.31 µM [rising, single point]. With `CCn1c(SCC(=O)Nc2nc(C)cs2)nnc1-c1ccco1`, the cell number change amounted to 124%. In addition, the AC50 under setting [1] is 7.31 µM [rising, partial curve]. On to `CCCCCCC(=O)Nc1cc2c(C)cc(=O)oc2cc1C`, for which the AC50 under setting [2] was 0.116 µM [rising, full curve, poor fit].

In the case of `COc1ccc(C(=O)Nc2ccc(S(=O)(=O)Nc3nccc(C)n3)cc2)cc1[N+](=O)[O-]`, the cell number change amounted to 11.1%. For the same compound, the AC50 under setting [2] is 11.6 µM [rising, partial curve]. Consider `COc1cc(S(=O)(=O)n2nc(C)cc2C)c(OC)cc1Cl`, for which the half-maximal activity concentration (AC50) is 2.91 µM [rising, partial curve] under setting [1] and 2.91 µM [rising, partial curve, poor fit] under setting [2]. In the case of `CCOC(=O)c1cc(-c2ccccc2)n(CC(=O)Nc2ccc(OCC)cc2)c1C`, the cell number change is -15.9%. Besides, the half-maximal activity concentration (AC50) under setting [2] was 25.9 µM [falling, single point]. Consider `COc1ccc(Cl)cc1C(=O)OCC(=O)NC(=O)c1cccn1C`, for which the cell number change amounted to 68.8%. In addition, the AC50 under setting [1] is 14.6 µM [rising, single point]. Turning to `CN(C)c1nc(C=C(C#N)C#N)c(Cl)n1-c1ccc(F)cc1`, the cell number change is -37.5%. The AC50 under setting [1] was 0.326 µM [falling, full curve].

Consider `Cc1cccc(Cn2nc(C)c(NC(=O)c3ccc(F)cc3)c2C)c1`, for which the AC50 under setting [2] is 0.326 µM [rising, full curve, poor fit]. Consider `COc1ccc(C(=O)N(Cc2ccccc2)c2cccc(C)c2)cc1`, for which the cell number change came to 31.9%. For `COc1ccc(NC(=O)CN(C)CC(=O)NC(=O)NC2CCCCC2)cc1`, the cell number change was -7.98%. Also, the concentration at half-maximal activity (AC50) under setting [1] was 3.66 µM [falling, single point]. Moreover, the half-maximal activity concentration (AC50) under setting [2] is 4.11 µM [falling, partial curve, poor fit]. Regarding `Cc1ccccc1-n1nnnc1SC(C)C(=O)NC1CCCc2ccccc21` (configuration not stated), the cell number change is -25.5%. Besides, the half-maximal activity concentration (AC50) under setting [2] is 16.4 µM [falling, partial curve].

For `COCCNC(=O)C(OC(=O)c1ccco1)c1ccccc1F` (configuration not stated), the cell number change is 1.32%. Consider `COc1ccc(-n2nc([N+](=O)[O-])c(=NCCc3ccc(Cl)cc3)n2O)cc1`, for which the cell number change was -18.6%. Moreover, the AC50 under setting [2] is 29.1 µM [falling, single point].

As for `O=C(c1cc2ccccn2n1)N1CCN(c2ccccn2)CC1`, the cell number change turned out to be 10.2%. In addition, the AC50 under setting [2] is 7.31 µM [rising, full curve, poor fit].

As to `COc1cc(Cl)c(C)cc1Nc1ncccn1`, the cell number change came out at 7.08%. Take `O=C(Nc1cccc(NC(=O)c2ccc(Cl)cc2)n1)c1ccc(Cl)cc1`: the cell number change is -0.587%. Further, the AC50 under setting [2] was 0.0461 µM [falling, full curve, poor fit].

Consider `COc1ccccc1NS(=O)(=O)c1ccc2oc(SCC(=O)N3CCNC3=O)nc2c1`, for which the cell number change came out at 5.51%. In addition, under setting [2], the concentration at half-maximal activity (AC50) was 3.26 µM [falling, single point]. Turning to `Cc1cccc(N=C2NC(=O)/C(=C/c3cccs3)S2)c1`, the cell number change turned out to be 7.04%. In addition, the concentration at half-maximal activity (AC50) under setting [2] is 11.6 µM [rising, partial curve]. As for `O=C(NC1CC1)c1ccc(CS(=O)(=O)c2c(Cl)cccc2Cl)o1`, the half-maximal activity concentration (AC50) reads like this: under setting [1], 1.3 µM [rising, single point]; under setting [2], 0.058 µM [falling, full curve, poor fit]. In the case of `COc1ccc(S(=O)(=O)N2CCN(C(=O)c3cc(-c4ccccc4OC)n[nH]3)CC2)cc1`, the cell number change is -2.02%. The concentration at half-maximal activity (AC50) under setting [2] was 29.1 µM [falling, single point]. Consider `O=C(CN1C(=O)C2C3C=CC(C3)C2C1=O)Nc1ccc(S(=O)(=O)N2CCCCC2)cc1` (configuration not stated), for which the cell number change is -27.8%. Under setting [1], the AC50 is 0.00517 µM [falling, full curve, poor fit]. Regarding `CC1CCCN(C(=O)COC(=O)/C=C/c2ccc(C(F)(F)F)cc2)C1` (configuration not stated), the cell number change is -21.5%. Moreover, the AC50 under setting [2] was 6.51 µM [falling, single point]. For `CN(C)c1ccc(NC(=O)Nc2cccc3ccccc23)cc1`, the cell number change is -7.53%. Moreover, the concentration at half-maximal activity (AC50) under setting [1] was 7.31 µM [falling, single point].

For the compound `CCCCCc1nnc(NC(=O)c2ccc3nc[nH]c3c2)s1`, the cell number change was -28.9%. Besides, the half-maximal activity concentration (AC50) under setting [2] was 29.1 µM [falling, single point]. `CN(C)c1nnnn1-c1ccc(Cl)cc1Cl`: the AC50 under setting [2] is 0.13 µM [falling, full curve, poor fit]. Take `COCCN(CC(=O)Nc1ccccc1C)S(=O)(=O)c1ccc(S(=O)(=O)N2CCCC2)cc1`: the AC50 reads like this: under setting [1], 3.26 µM [rising, partial curve]; under setting [2], 6.51 µM [rising, single point].

For the compound `COc1ccc(N(C)C(=O)C2CCCN2S(=O)(=O)c2cccc3nsnc23)cc1` (configuration not stated), the cell number change is -27.9%. In addition, under setting [2], the AC50 is 0.326 µM [rising, full curve, poor fit]. For `Cc1nnc(NC(=O)Nc2ccc(Cl)c(Cl)c2)s1`, the cell number change stood at 28.8%. Besides, the concentration at half-maximal activity (AC50) under setting [2] is 6.51 µM [rising, partial curve].

For `COc1ccc(C(=O)NNC(=O)CSc2nnnn2-c2cc(OC)cc(OC)c2)cc1`, the cell number change is 2.78%. The AC50 under setting [2] was 6.51 µM [rising, single point]. As to `O=c1[nH]c2cc3c(cc2cc1CN(Cc1ccccc1)Cc1nnnn1Cc1ccco1)OCCO3`, the cell number change is -27.9%. The AC50 under setting [2] is 0.00517 µM [falling, full curve, poor fit].

For `Cc1[nH]c2ccccc2c1C(=O)CSc1nc2ccccc2[nH]1`, the cell number change was -6.54%. Besides, the concentration at half-maximal activity (AC50) under setting [2] is 23.1 µM [rising, single point].

Regarding `CC(NC(=O)c1cccc(Cl)c1)C1CC2CCC1C2` (configuration not stated), the cell number change was -7.21%. Further, the AC50 under setting [2] was 29.1 µM [falling, single point]. For `COc1ccc(CN2CCC(=O)NC2=O)cc1`, the cell number change is -8.22%. In addition, under setting [2], the concentration at half-maximal activity (AC50) is 0.58 µM [falling, single point]. For the compound `Cc1cccc(NC(=O)CN2CCCCCC2)c1`, the cell number change amounted to 23.5%. Moreover, under setting [2], the AC50 is 0.13 µM [rising, full curve, poor fit]. For the compound `O=C(c1ccc(CS(=O)(=O)c2ccc(Br)cc2)o1)N1CCOCC1`, the cell number change is 2.37%. As for `O=C(NN1CCOCC1)c1ccc(F)cc1`, the cell number change worked out at 20.3%. The AC50 under setting [2] was 29.1 µM [rising, single point].

As for `CCC(C)(C)n1nnnc1C(c1ccncc1)N1CCC(Cc2ccccc2)CC1` (configuration not stated), the cell number change stood at 44.4%. Besides, the AC50 under setting [1] was 1.84 µM [rising, partial curve, poor fit]. Further, the concentration at half-maximal activity (AC50) under setting [2] was 0.82 µM [rising, single point].

These data come from PubChem BioAssay AID2685 (National Center for Advancing Translational Sciences (NCATS), 2010).
